# Reference: PubChem BioAssay (EPA / NIEHS)
# Sequences of proteins named here, by UniProt entry; tags and fusion partners are left off. A change or cut given only in a name is not applied to a line headed by its entry.
# UniProt P04637, whole entry, looked up: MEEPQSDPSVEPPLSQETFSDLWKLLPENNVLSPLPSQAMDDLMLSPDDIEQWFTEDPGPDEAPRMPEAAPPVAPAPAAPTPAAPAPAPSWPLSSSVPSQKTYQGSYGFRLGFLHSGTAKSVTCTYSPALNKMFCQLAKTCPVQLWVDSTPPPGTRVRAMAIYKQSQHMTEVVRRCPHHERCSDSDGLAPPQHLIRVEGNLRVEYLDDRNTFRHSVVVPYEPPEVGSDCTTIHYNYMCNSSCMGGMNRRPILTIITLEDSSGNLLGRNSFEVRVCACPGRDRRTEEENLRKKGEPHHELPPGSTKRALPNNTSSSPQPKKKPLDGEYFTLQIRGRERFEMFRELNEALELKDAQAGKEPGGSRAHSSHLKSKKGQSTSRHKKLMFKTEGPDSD
# UniProt P10827: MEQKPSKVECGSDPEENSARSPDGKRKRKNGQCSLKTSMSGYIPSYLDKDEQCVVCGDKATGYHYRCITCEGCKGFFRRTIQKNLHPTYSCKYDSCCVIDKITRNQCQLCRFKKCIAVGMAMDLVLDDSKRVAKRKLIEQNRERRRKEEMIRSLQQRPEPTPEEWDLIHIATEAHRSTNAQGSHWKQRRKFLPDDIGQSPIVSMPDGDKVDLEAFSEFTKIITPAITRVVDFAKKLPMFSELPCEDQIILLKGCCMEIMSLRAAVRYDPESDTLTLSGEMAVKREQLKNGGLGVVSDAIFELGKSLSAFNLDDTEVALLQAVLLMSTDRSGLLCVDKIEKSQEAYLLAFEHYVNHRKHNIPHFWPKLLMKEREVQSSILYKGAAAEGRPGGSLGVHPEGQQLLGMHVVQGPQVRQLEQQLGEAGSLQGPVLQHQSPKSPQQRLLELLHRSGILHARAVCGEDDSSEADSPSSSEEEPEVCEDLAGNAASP
# UniProt P10828: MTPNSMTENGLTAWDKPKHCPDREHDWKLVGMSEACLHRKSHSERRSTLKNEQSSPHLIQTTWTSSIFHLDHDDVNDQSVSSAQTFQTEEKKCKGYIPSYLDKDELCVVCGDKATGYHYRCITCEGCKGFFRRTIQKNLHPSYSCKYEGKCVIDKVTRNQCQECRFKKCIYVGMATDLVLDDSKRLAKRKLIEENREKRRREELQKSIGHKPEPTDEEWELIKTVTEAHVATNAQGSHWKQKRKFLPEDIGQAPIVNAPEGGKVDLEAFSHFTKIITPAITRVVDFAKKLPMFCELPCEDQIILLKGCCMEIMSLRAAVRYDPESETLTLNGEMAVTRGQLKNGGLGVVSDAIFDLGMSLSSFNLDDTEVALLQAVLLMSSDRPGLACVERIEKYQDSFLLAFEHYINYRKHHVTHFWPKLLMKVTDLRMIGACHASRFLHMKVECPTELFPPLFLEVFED
# The inconclusive results got no clear call from the source; some entries with a clear call stand among them for comparison. For some assays here: Where the call is inconclusive, the potency comes from a doubtful curve fit. Calls of active or inactive are those of the source. Rule for the calls: active = hit-call score of the fitted dose curve at least 0.9, where 1 is the maximum; inconclusive = response in the unintended direction; inactive = score below 0.9.
# Columns and labels:
# [1] = biological target: Cellular tumor antigen p53 (Homo sapiens) (UniProt P04637); test: TOX21_p53_BLA_p3_ratio: Tox21 HCT-116 p53 Agonism Beta-lactamase Assay, Ratio, Phase 3 (AID 2283596)
# Outline: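 Cells were seeded at 4000/well, rested 5 h at 37C, then dosed with DMSO compound solutions (217-fold dilution) for 16 h. CCF4-AM substrate was loaded for 2 h at room temperature, and the 460/530 nm emission ratio was fitted for gain of signal versus DMSO.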
# [2] = biological target: Cellular tumor antigen p53 (Homo sapiens) (UniProt P04637); test: TOX21_p53_BLA_p5_ratio: Tox21 HCT-116 p53 Agonism Beta-lactamase Assay, Ratio, Phase 5 (AID 2283599)
# Outline: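 HCT-116 p53-bla cells (4000/well) plated 5 h, dosed with compound (217-fold DMSO dilution) for 16 h at 37 C; CCF4-AM substrate 2 h at room temperature. Activity is the 460/530 nm emission ratio (405 nm excitation), fitted in gain-of-signal direction versus DMSO.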
# [3] = TOX21_p53_BLA_p3_viability: Viability Assessment in the Tox21 HCT-116 p53 Agonism Beta-lactamase Assay, Phase 3 (AID 2283593);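 note: cells exposed to compound for 16 h before reading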
# Outline: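 HCT116 cells, 4000/well, dosed 5 h after plating by pin transfer (217-fold dilution from DMSO stock) and incubated 16 h at 37C, 5% CO2. Viability read as ATP luminescence with CellTiter-Glo after 30 min at room temperature.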
# [4] = TOX21_p53_BLA_p5_viability: Viability Assessment in the Tox21 HCT-116 p53 Agonism Beta-lactamase Assay, Phase 5 (AID 2283600)
# Outline: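 Viability came from CellTiter-Glo ATP luminescence, read after 30 min at room temperature. Before this, HCT-116 p53-bla cells (4000/well) had 16 hours of compound exposure at 37C, with DMSO stocks diluted 217-fold on transfer.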
# [5] = STM_H9_OrnCyssISnorm_ratio: Stemina devTOX quickPredict H9 human embryonic stem cell (hESC)-based Assay for Ornithine (ORN):Cystine (CYSS) Ratio (AID 2283714)
# Outline: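 UPLC-HRMS of spent media: ORN/CYSS ratio of internal-standard-normalized percentages, DMSO (0.1%) baseline. Pluripotent H9 hESCs, 72h exposure, daily re-dosing with fresh media; last 24h media collected.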
# [6] = STM_H9_NormalizedViability: Cytotoxicity Assessment at 120 hours in the Stemina devTOX quickPredict H9 human embryonic stem cell (hESC)-based Assay (AID 2283784)
# Outline: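 Viability endpoint: background-corrected CellTiter-Fluor RFU expressed relative to the 0.1% DMSO mean on each plate. Undifferentiated H9 cells were treated with daily re-dosing and media change, and loss of signal was fitted.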
# [7] = biological target: Thyroid hormone receptor alpha (Rattus norvegicus) + Thyroid hormone receptor beta (Rattus norvegicus) (UniProt P18113+P63059); test: TOX21_TR_LUC_GH3_Antagonist_Followup: Tox21 GH3 Thyroid Hormone Receptor Antagonism Luciferase Follow-Up Assay (AID 2283942)
# Outline: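 Luminescence read-out (ONE-Glo, 30 min at room temperature) in GH3 reporter cells challenged with 1.0 nM T3 final. Compounds ran at 92 uM to 5nM over 15 concentrations for 24 h; DMSO served as negative control and baseline.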
# THRA (gene 7067) = THRA (gene 7067) (UniProt P10827); test: TOX21_TRA_COA_Antagonist_Followup_ratio: Tox21 Thyroid Hormone Receptor alpha Antagonism through Coactivator Recruitment Follow-Up Assay, Ratio (AID 2283953)
# Outline: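 GST-TRα LBD 2.5 nM, BSA 0.10%, + cpd; then FITC-SRC-2 peptide 200 nM + Tb-anti-GST Ab 2 nM. TR-FRET ratio 520/495 nm. Norm: DMSO = 0%, T3 = 100%.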
# [8] = TOX21_TRB_BLA_Antagonist_Followup_viability: Viability Assessment in the Tox21 Thyroid Hormone Receptor beta Antagonism Beta-lactamase (BLA) Follow-Up Assay (AID 2283961)
# Outline: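 ATP-based CellTiter-Glo luminescence (30 min, room temperature) run in the same wells as the TRβ-bla readout. Cells: GeneBLAzer HEK293T expressing GAL4-TRβ LBD, exposed 18 h at 37C to compounds at 11 concentrations in triplicate, stripped-serum medium.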
# THRB (gene 7068) = THRB (gene 7068) (UniProt P10828); test: TOX21_TRB_COA_Antagonist_Followup_ratio: Tox21 Thyroid Hormone Receptor beta Antagonism through Coactivator Recruitment Follow-Up Assay, Ratio (AID 2283967)
# Outline: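 GST-TRb LBD 5.0 nM + 0.10% BSA, compound added; fluorescein-SRC-2 peptide 200 nM, Tb-anti-GST Ab 2 nM. TR-FRET, ex 340 / em 520:495 ratio. Norm: DMSO 0%, T3 100%.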
# [9] = TOX21_p53_BLA_p4_viability: Viability Assessment in the Tox21 HCT-116 p53 Agonism Beta-lactamase Assay, Phase 4 (AID 2283597);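 note: hits lower the luminescence signal meaning cytotoxicity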
# Outline: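 Cytotoxicity as reduced cellular ATP (CellTiter-Glo luminescence, 30 min room temperature), measured in the same wells following the CCF4 FRET p53 reading. Human HCT-116 cells received compounds in DMSO (217-fold dilution) for 16 h.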
# [10] = biological target: Cellular tumor antigen p53 (Homo sapiens) (UniProt P04637); test: TOX21_p53_BLA_p4_ratio: Tox21 HCT-116 p53 Agonism Beta-lactamase Assay, Ratio, Phase 4 (AID 2283601)
# Outline: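 HCT-116 p53 beta-lactamase reporter cells (4000/well) preincubated 5 h, then compound (217-fold dilution of DMSO stock) for 16 h at 37C. CCF4-AM substrate added 2 h at room temperature; 460/530 nm emission ratio fitted upward versus DMSO.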
smiles,measurement,setting,value
O=C1c2ccccc2C(=O)c2ccccc21,AC50,[1],inconclusive: 23 µM
same,AC50,[2],inconclusive: 23 µM
CCCC[N+](CCCC)(CCCC)CCCC,outcome,[3],inactive
same,outcome,[4],inactive
same,AC50,[5],inconclusive: 5.92 nM
same,AC50,[6],inconclusive: 9.62 nM
COC1=CC(=O)O[C@@H](/C=C/c2ccc3c(c2)OCO3)C1,outcome,[3],inactive
same,outcome,[4],inactive
same,outcome,[7],inactive
same,AC50,THRA (gene 7067),inconclusive: 19.2 µM
same,outcome,[8],inactive
same,outcome,THRB (gene 7068),inactive
C[C@@H]1CN(C2CCC(C#N)(c3ccc(F)cc3)CC2)CC[C@]1(C(=O)O)c1ccccc1 (some centres not stated),outcome,[1],inactive
same,AC50,[9],inconclusive: 4.32e-05 µM
same,outcome,[2],inactive
same,AC50,[4],inconclusive: 18.1 µM
Cc1ccc2c(C)cccc2c1,AC50,[3],inconclusive: 44.4 µM
same,outcome,[4],inactive
ClCC(Br)CBr (configuration not stated),AC50,[1],inconclusive: 45.8 µM
same,AC50,[2],inconclusive: 45.8 µM
same,AC50,[10],inconclusive: 45.8 µM
N#CCBr,AC50,[9],inconclusive: 47.6 µM
same,AC50,[2],inconclusive: 47.6 µM
same,AC50,[4],inconclusive: 0.00154 µM
same,AC50,[10],inconclusive: 47.6 µM
O=C1CC[C@@]2(O)[C@H]3Cc4ccc(O)c5c4[C@@]2(CCN3CC2CC2)[C@H]1O5,outcome,[1],inactive
same,AC50,[2],inconclusive: 43.7 µM
CCC(N)Cc1c[nH]c2ccccc12 (configuration not stated),AC50,[1],inconclusive: 43.4 µM
same,outcome,[10],inactive
CCCCN=C=O,outcome,[9],inactive
same,AC50,[4],inconclusive: 82.7 µM

# Two successive entries out of the list so far, for reference:
smiles,measurement,setting,value
CCCCN=C=O,outcome,[9],inactive
same,AC50,[4],inconclusive: 82.7 µM
